This passage reports AC50 results from PubChem BioAssay AID493014 (National Center for Advancing Translational Sciences (NCATS), 2011).

This is one part of the list. The main result of the screen is listed elsewhere. These columns were measured beside it and carry no call. Compounds called inactive in the main read-out are mostly missing here. Words in brackets tell the shape of the fitted curve; partial curves, single points and poor fits give uncertain potencies.

The test is described as follows: qHTS Assay to Find Inhibitors of Chronic Active B-Cell Receptor Signaling. The note with it: ABC-DLBCL IkBa-CBG/CBR reporter, luminescence ratio (green luciferase fused to IkBa over red control in TMD8 lymphoma cells), 4 h. The gist of the method: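 Cell line TMD8 (human ABC DLBCL), stably expressing tet-inducible CBG68-IkBa fusion and CBR; IMDM/0.5% FBS; cpd up to 46 uM; dox induction, 4 h, 37C/5% CO2; dual luminescence; green/red ratio; MG132 control.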

The mark [1] stands for this setting: measured here: CBR red luminescence, cell number.
[2] abbreviates: measured here: IkBa-CBG green luminescence.

As for `O=S(=O)(c1cccc(NC(=S)N2CCN(c3ccccc3)CC2)c1)C(F)F`, under setting [1], the AC50 is 18.4 µM [falling, partial curve, poor fit].
Consider `CCS(=O)(=O)c1ccc2oc(Nc3ccccc3Br)nc2c1`, for which the AC50 under setting [1] was 1.41 µM [rising, partial curve].
Still for that read-out and setting: the result for `C#CCOCCOCCOCCNc1nc(N2CCN(C(=O)CCCCCCCCCCNC(=O)[C@H](CCCCN)n3cc(C[C@@H](C)CC)nn3)CC2)nc(N2CCN(C(=O)CCCCCCCCCCNC(=O)[C@H](CCCN=C(N)N)n3cc(C[C@@H](C)CC)nn3)CC2)n1` reads 8.2 µM [falling, single point]; that for `CC(C)(C)C(=O)NCc1ccc(C(=O)CSc2nnc(C3CC3)n2C2CC2)s1`, 23.1 µM [rising, partial curve, poor fit]; that for `CCCS(=O)(=O)c1c(S(=O)(=O)CCC)c2c(C)cccn2c1C(=O)N/N=C/c1cc(O)cc(O)c1`, 8.91 µM [falling, partial curve].
Still for that read-out and setting: to `O=C(NCC1CCCO1)c1cc2ccccc2oc1=O` (stereo unspecified) belongs 11.2 µM [falling, partial curve, poor fit].
In the case of `Nc1c(C(=O)NC2CCCC2)c2nc3ccccc3nc2n1/N=C/c1ccco1`, under setting [1], the AC50 was 0.92 µM [falling, full curve, poor fit].
On the same count and under the same terms, the result for `N#C/C(=C(/O)c1ccc([N+](=O)[O-])o1)c1nc2ccccc2[nH]1` reads 1.12 µM [falling, full curve, poor fit]; that for `O=C(Nc1ccccc1)c1ccc2c(c1)OCCO2`, 10 µM [falling, partial curve].
Regarding `CCc1ccccc1-n1c(SCC(=O)NC)nnc1-c1cccnc1`, the concentration at half-maximal activity (AC50) under setting [1] was 3.55 µM [falling, partial curve, poor fit].
Take `Cc1ccc(C(=O)c2cc([N+](=O)[O-])ccc2N2CCCCC2)c(C)c1`: the AC50 under setting [1] was 2.91 µM [rising, full curve] and the AC50 under setting [2] was 3.66 µM [falling, full curve].
With `COc1ccc(N=Nc2ccc3ccccc3c2)c(O)c1`, the half-maximal activity concentration (AC50) under setting [1] is 0.355 µM [falling, full curve].
Regarding `Cc1ccc(NC(=O)Nc2ccno2)cc1`, under setting [1], the AC50 was 11.2 µM [rising, partial curve, poor fit].
In the case of `Cc1ccnc(NC(=O)CNC(=O)C23CC4CC(CC(C4)C2)C3)c1`, the AC50 under setting [1] is 29.1 µM [rising, single point].
Take `COC(=O)c1sccc1NC(=O)Nc1cc(OC)ccc1OC`: under setting [1], the concentration at half-maximal activity (AC50) is 11.2 µM [falling, partial curve, poor fit].
As for `CCc1ccc(CNc2ccc3c(c2)ncn3C)cc1`, the half-maximal activity concentration (AC50) under setting [1] was 11.2 µM [rising, partial curve].
The same measure, in the same setting: the result for `O=[N+]([O-])c1ccc(Sc2n[nH]c(-c3ccco3)n2)nc1` reads 1.41 µM [rising, partial curve, poor fit].
The same measure, in the same setting: to `CCC1(c2cccc(Cl)c2)NC(=O)N(Cc2cc(C(=O)OC)c(C)o2)C1=O` (stereo unspecified) belongs 20.6 µM [falling, partial curve, poor fit].
Same read-out and setting: to `Cc1cc(NC(=O)CN2CCCC(C)C2)no1` (stereo unspecified) belongs 22.4 µM [falling, single point]; to `CCCCCCSc1ccc([C@H]2N[C@@](CC(C)C)(C(=O)OC)[C@H]3C(=O)N(C)C(=O)[C@@H]23)cc1`, 29.1 µM [falling, partial curve, poor fit].
As for `CC(=O)Nc1ccc(NC(=O)C(C)OC(=O)CSc2ccc(Br)cc2C)cc1` (stereo unspecified), the AC50 under setting [1] was 14.1 µM [rising, partial curve, poor fit].
On to `CCc1nc(Nc2ccncc2)c2oc3ccccc3c2n1`, for which, under setting [1], the AC50 was 12.6 µM [falling, partial curve].
Still for that read-out and setting: the result for `COc1ccc(NC(=O)C2=CC(c3ccc(OC)c(OC)c3)=NS(=O)(=O)N2C)cc1` reads 35.5 µM [falling, single point]; that for `COc1ccc(-n2c(CN3CCN(c4ccc(F)cc4)CC3)nc3ccc([N+](=O)[O-])cc3c2=O)c(OC)c1`, 0.112 µM [falling, full curve, poor fit].
On the same count and under the same terms, the result for `Cn1c(=O)n(Cc2ccccc2)c(=O)c2c1nc1n2CCCN1Cc1ccccc1` reads 25.9 µM [rising, partial curve, poor fit].
As for `O=C(Nc1ccc(F)cc1)c1nn(-c2ccccc2)c(=O)cc1Cl`, the half-maximal activity concentration (AC50) by setting is: under setting [1], 10 µM [falling, partial curve]; under setting [2], 35.5 µM [rising, partial curve, poor fit].
Turning to `O=Cc1ccnc(-c2ccc(OC(=O)c3ccco3)cc2)n1`, the AC50 is 31.6 µM [rising, single point] under setting [1] and 35.5 µM [falling, single point] under setting [2].
As for `CN(CC(=O)Nc1ccc(F)c(F)c1F)C1CCCCC1`, the AC50 under setting [1] was 20.6 µM [falling, single point].
On the same count and under the same terms, to `O=c1[nH]c(-c2ccccc2)nc2sc(-c3ccccc3)cc12` belongs 1.58 µM [falling, full curve]; to `CCOc1ccc(CN(C)C(=O)[C@H](C)NC(=O)c2ccco2)cc1OC`, 14.1 µM [rising, partial curve, poor fit]; to `O=c1[nH]c2ccccc2nc1CCc1ccccc1`, 0.1 µM [rising, full curve, poor fit].
The same measure, in the same setting: to `Cn1cccc1/C=C1\SC(=Nc2ccccc2)NC1=O` belongs 8.91 µM [falling, partial curve]; to `Cc1ccc(N(C(=O)CNC(=O)c2ccco2)C(C(=O)NC2CCCCC2)c2cccnc2)cc1` (stereo unspecified), 11.2 µM [falling, partial curve, poor fit].
Same read-out and setting: to `O=c1cc(O)c(-c2cccc(Cl)c2)c(Cl)[nH]1` belongs 0.731 µM [falling, full curve, poor fit]; to `CN1CCN(Cc2cc(=O)oc3ccc(Cl)cc23)CC1`, 7.08 µM [rising, full curve, poor fit]; to `CCOc1cc(C2C(C#N)=C(N)OC3=C2C(=O)CC(C)(C)C3)cc([N+](=O)[O-])c1O` (stereo unspecified), 20 µM [falling, single point].
For `Cc1ccc(NC(=O)Cn2c(CCC(=O)O)ccc2-c2ccc(Cl)cc2)cc1`, the AC50 under setting [1] is 1.41 µM [rising, partial curve].
The same measure, in the same setting: the result for `Cc1ccsc1/C=C1\CCC(C2CCCC2)C1=O` (stereo unspecified) reads 1.58 µM [rising, full curve].
